Measured values: the supplement of paper PMC3334620
In all, about 33,000 sequences were measured (“E-score (-0.5 to 0.5)”: median about -0.0034, highest 2% from about 0.25 on). Some of the results follow.

Target: T1, Yap3 (UniProt P38749)
T1 sequence: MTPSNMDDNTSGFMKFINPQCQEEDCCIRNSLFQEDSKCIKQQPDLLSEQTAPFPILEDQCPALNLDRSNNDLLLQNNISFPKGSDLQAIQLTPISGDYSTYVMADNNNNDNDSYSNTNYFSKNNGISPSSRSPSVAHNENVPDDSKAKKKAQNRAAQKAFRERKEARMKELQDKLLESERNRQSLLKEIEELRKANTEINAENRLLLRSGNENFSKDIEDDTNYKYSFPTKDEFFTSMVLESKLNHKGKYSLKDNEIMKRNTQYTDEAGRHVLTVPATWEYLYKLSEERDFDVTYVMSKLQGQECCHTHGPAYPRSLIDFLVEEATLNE
Assay: PBM E-score (8-mer binding enrichment) (E-score (-0.5 to 0.5)); higher = stronger / more preferred TF binding
Details: protein concentration: 100 nM; construct: GST-full length
How it was run: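 Each ungapped eight-base word and its reverse complement, pooled, received an E-score from the Universal PBM Analysis Suite. Underlying scans, normalised with masliner, recorded fluorescent anti-GST bound to GST-tagged yeast transcription factors. These were applied at about 100-200 nM to universal all-10-mer Agilent arrays double-stranded by primer extension.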

| Sequence | PBM E-score |
| --- | --- |
| CGGGCCTA | -0.255 |
| ATGTATAC | 0.117 |
| CATTGATC | 0.142 |
| GCATGCTA | -0.144 |
| ACGACCCA | -0.0967 |
| CGGCCACA | -0.115 |
| AATGAACA | 0.215 |
| GTATACGA | -0.0953 |
| CATTTTCC | 0.193 |
| GGCACGCC | -0.417 |
| CAAAAGGC | -0.0663 |
| TTAAACAA | -0.026 |
| CATCCGGG | -0.18 |
| GCCCGCAA | -0.0374 |
| AAAGGACT | -0.192 |
| GTTCGCCA | -0.0463 |
| GAATAGGA | 0.0879 |
| ATCATCAT | 0.139 |
| ACGTTTCG | -0.0184 |
| ACAGATAT | 0.103 |
| AAACTAAG | 0.186 |
| CATCAAAA | 0.084 |
| CTCTTACA | -0.0244 |
| CGGATCTA | -0.0583 |
| CGGAGCAA | 0.0625 |

| Sequence | PBM E-score |
| --- | --- |
| ACACGCCA | 0.0057 |
| ACTCCCGC | -0.074 |
| ATGTAAAC | 0.248 |
| TAGAGCGA | 0.174 |
| AGCTGTCC | -0.0903 |
| TACGAAAA | 0.144 |
| ACTAAAAC | 0.182 |
| CGGCAACA | 0.121 |
| AATAATGC | 0.216 |
| CCCCGACC | -0.237 |
| AAACCTGC | -0.00698 |
| CGTCACCA | 0.0237 |
| AGAGTTTG | 0.00236 |
| TACGCCTA | -0.057 |
| GGGTGTCA | -0.127 |
| ACGGGCTA | -0.0605 |
| TAATCTCA | 0.219 |
| GCTTGCAA | 0.095 |
| ATAGGTAG | -0.0453 |
| AAGTTAAA | 0.163 |
| ACATGGCG | -0.105 |
| CCGCGACG | -0.179 |
| CTTCTGAA | 0.0313 |
| GGAATGGA | -0.0717 |
| CCAGGGCC | -0.37 |

| Sequence | PBM E-score |
| --- | --- |
| AAGTCCAG | -0.0614 |
| AGACCGAG | -0.0151 |
| GCGAATAA | 0.0154 |
| AAAAAGAG | 0.0691 |
| CGGGACGA | -0.103 |
| ACTTAAGC | -0.0238 |
| AATTCTAC | 0.162 |
| ACGATAAG | 0.0976 |
| AAAGGGCC | -0.296 |
| CTGGGAAG | -0.123 |
| ATTGGCGC | -0.0226 |
| CTGAGAAC | 0.122 |
| TCATTTCA | 0.122 |
| CAAATGTC | -0.0527 |
| ATGCACCC | -0.00077 |
| AGCCCACA | -0.117 |
| ACATGGAC | -0.0827 |
| GGGGTATA | -0.0253 |
| CGGCATTC | 0.0554 |
| GGACAAAA | 0.172 |
| CACTCGAC | -0.0984 |
| CCAAAACC | 0.00906 |
| ACTGTCTG | -0.134 |
| AAATAGTA | 0.209 |
| AGCCAGCC | -0.184 |

| Sequence | PBM E-score |
| --- | --- |
| GTCAACAA | 0.0405 |
| CTGTGTAC | 0.0905 |
| ACCAACAT | 0.0802 |
| AAGCTAAT | 0.0795 |
| CGTGGGGC | -0.333 |
| AGTTATCG | 0.13 |
| GCCGCCTA | -0.129 |
| GGTCACCA | -0.33 |
| CCGTACTC | -0.142 |
| CTATCGAG | -0.0268 |
| CAGATCCA | 0.00919 |
| CAGGTGAA | 0.0248 |
| CCAGCGAA | -0.104 |
| TGACCGAA | 0.0396 |
| CATAAGAC | 0.203 |
| ATGGGTAG | -0.0623 |
| AAACCAAA | 0.0991 |
| ACTGTAAA | 0.257 |
| GCAGCACA | 0.0133 |
| GGCAGTAA | 0.0144 |
| GAACTTGC | -0.121 |
| CTTCGATA | 0.047 |
| GAGGATTA | 0.133 |
| GCCGACAC | -0.135 |
| ACCCGGAG | -0.0785 |

| Sequence | PBM E-score |
| --- | --- |
| CCCGAAAA | 0.0902 |
| CGGGGGTA | -0.0997 |
| AGTGTGCC | 0.0509 |
| CATGTACC | -0.14 |
| GCCTGCCA | -0.092 |
| AATGCTGT | -0.00234 |
| CACGCTTA | 0.125 |
| AGGCTAAT | 0.119 |
| CATCTTGA | -0.0437 |
| ACTGACCG | -0.0919 |
| AACGCATT | 0.0955 |
| ATCTTGAG | 0.0293 |
| CAGGGCGA | -0.118 |
| GGGACGAA | -0.259 |
| CGTGACAA | -0.06 |
| CTTCCCGA | 0.0207 |
| GGAGATAC | -0.18 |
| CGTCGCAG | -0.0218 |
| AGCCCAAC | 0.0103 |
| AGTCATCA | 0.03 |
| ATCGACTC | -0.161 |
| CCCGGTGA | -0.265 |
| CAATGATG | 0.127 |
| GGATGGTA | 0.159 |
| GGACATTA | 0.18 |

Reformatted: entries from further up
Sequence | PBM E-score
ATCATCAT | 0.139
CGTCACCA | 0.0237

(further entries)

| Sequence | PBM E-score |
| --- | --- |
| ACGTAACC | 0.13 |
| GGCTACCA | -0.225 |
| AGCCACCT | -0.187 |
| ATAGGACG | 0.0434 |
| ATGATTAG | 0.124 |
| TGATAAAA | 0.168 |
| GATTTCAA | 0.0767 |
| GGTTCTGA | -0.0196 |
| GCATGCGA | 0.161 |
| GCCGTGAC | -0.017 |
| CGTTACGA | 0.051 |
| CCCCTCCC | -0.172 |
| ATGGCCCA | -0.1 |
| AATCAAGA | 0.167 |
| TAAAAGTA | 0.195 |
| AATGTCGT | 0.0725 |
| CGAACGTA | 0.0095 |
| GGCCGCAA | -0.0704 |
| CCATGTCC | -0.0944 |
| CTGGGTCC | -0.332 |
| AGAGACAC | -0.164 |
| ACGTAAAT | 0.174 |
| AGAAAACT | 0.163 |
| GCGAACCC | -0.162 |
| ACGGACCC | -0.204 |

| Sequence | PBM E-score |
| --- | --- |
| ACTTCCTA | 0.0716 |
| CGTTAGAA | 0.0499 |
| GCAGCACC | -0.145 |
| ACACTAAA | 0.261 |
| AGCGCGTC | -0.0689 |
| AATGACTC | -0.114 |
| CAGTGGGC | -0.232 |
| CAATGGCC | -0.262 |
| GACATCAC | -0.0593 |
| CCCCTGCA | -0.366 |
| GTAACTAA | 0.163 |
| CGGGTGCA | -0.126 |
| CTCTGTCC | -0.0934 |
| CATCACGA | -0.112 |
| ATACATTC | 0.0366 |
| CTAGGCAA | -0.153 |
| ACAAGAGA | 0.113 |
| GACTTGCC | -0.278 |
| AATGACAG | 0.142 |
| AGCCCGGA | -0.233 |
| CATATTGA | 0.0743 |
| CGGTGCTA | -0.00548 |
| CATCTAAC | -0.11 |
| CAAACGCA | -0.033 |
| CATTGGAG | -0.00265 |

| Sequence | PBM E-score |
| --- | --- |
| GGGACTTA | -0.0342 |
| CTACGAAG | -0.216 |
| CAACCCTG | -0.0135 |
| ACCTACGT | 0.0431 |
| ATCGCACA | 0.0433 |
| GCGCATGA | 0.004 |
| CATGCACA | 0.14 |
| AACGTGGG | -0.0983 |
| GGATTGTA | 0.0712 |
| ACGGCGCC | -0.173 |
| CCTCTCGA | -0.0546 |
| ATGCTCTG | -0.135 |
| AGCATCCG | -0.0782 |
| CAATGTTC | -0.0564 |
| AACCTTAA | 0.159 |
| GGGTGCTA | -0.0464 |
| GGGGCTAA | -0.103 |
| ACCGAAAA | 0.178 |
| ATATAGGC | 0.12 |
| CAACAAGC | 0.0604 |
| ACAGCGAG | -0.137 |
| CCACGTGA | 0.0417 |
| TGATTTAA | 0.242 |
| GCAATTGC | 0.0456 |
| AAAGTCTC | -0.219 |

A second format for part of the listing above:
Sequence,PBM E-score
AATGTCGT,0.0725
CGAACGTA,0.0095
GGCCGCAA,-0.0704
CCATGTCC,-0.0944
CTGGGTCC,-0.332
AGAGACAC,-0.164
ACGTAAAT,0.174
AGAAAACT,0.163
GCGAACCC,-0.162
ACGGACCC,-0.204
ACTTCCTA,0.0716
CGTTAGAA,0.0499
GCAGCACC,-0.145
ACACTAAA,0.261
AGCGCGTC,-0.0689
AATGACTC,-0.114
CAGTGGGC,-0.232
CAATGGCC,-0.262
GACATCAC,-0.0593
CCCCTGCA,-0.366
GTAACTAA,0.163
CGGGTGCA,-0.126
CTCTGTCC,-0.0934
ATACATTC,0.0366
CTAGGCAA,-0.153
ACAAGAGA,0.113
GACTTGCC,-0.278
AATGACAG,0.142
AGCCCGGA,-0.233
CATATTGA,0.0743
CGGTGCTA,-0.00548
CATCTAAC,-0.11
CAAACGCA,-0.033
GGGACTTA,-0.0342
CTACGAAG,-0.216
CAACCCTG,-0.0135
ACCTACGT,0.0431
ATCGCACA,0.0433
GCGCATGA,0.004
CATGCACA,0.14
AACGTGGG,-0.0983
GGATTGTA,0.0712
CCTCTCGA,-0.0546
ATGCTCTG,-0.135
AGCATCCG,-0.0782
CAATGTTC,-0.0564
AACCTTAA,0.159
GGGTGCTA,-0.0464
GGGGCTAA,-0.103
ACCGAAAA,0.178
ATATAGGC,0.12
CAACAAGC,0.0604
ACAGCGAG,-0.137
CCACGTGA,0.0417
TGATTTAA,0.242
GCAATTGC,0.0456
AAAGTCTC,-0.219

Single values from the results shown:
Value for ACAGCGAG under PBM E-score: -0.137
Value for ATCGCACA under PBM E-score: 0.0433

Next part.

| Sequence | PBM E-score |
| --- | --- |
| AGTCATAT | 0.193 |
| ACCGATCG | 0.00392 |
| AAGCTTAG | 0.164 |
| CGACAGGA | 0.0296 |
| ATTTGGAG | -0.135 |
| ACCCTATC | -0.0122 |
| TCTGAGCA | -0.00117 |
| GAGACGTA | 0.0952 |
| CGTACTCC | -0.0483 |
| CCTATTTC | 0.0877 |
| ACATTAAA | 0.229 |
| CCTGTATA | -0.0196 |
| AGGGATTG | -0.0391 |
| GCGCGGTA | 0.197 |
| TACCTCCA | -0.0761 |
| AGTGCTAA | -0.00432 |
| ACACTACC | -0.221 |
| GTCAGCCA | -0.0924 |
| CGAGCCCC | -0.222 |
